These are yes or no findings as the source states them, for the method shown. For some assays here: Binding seen in cells or lysates may run through a third protein. Some entries that bind do so weakly or less than the wild type. For some assays here: Tags and fused reporters may be left off the sequences shown.

The target of one assay is T1, Trs130 (S. cerevisiae) (UniProt Q03660).
T1 sequence: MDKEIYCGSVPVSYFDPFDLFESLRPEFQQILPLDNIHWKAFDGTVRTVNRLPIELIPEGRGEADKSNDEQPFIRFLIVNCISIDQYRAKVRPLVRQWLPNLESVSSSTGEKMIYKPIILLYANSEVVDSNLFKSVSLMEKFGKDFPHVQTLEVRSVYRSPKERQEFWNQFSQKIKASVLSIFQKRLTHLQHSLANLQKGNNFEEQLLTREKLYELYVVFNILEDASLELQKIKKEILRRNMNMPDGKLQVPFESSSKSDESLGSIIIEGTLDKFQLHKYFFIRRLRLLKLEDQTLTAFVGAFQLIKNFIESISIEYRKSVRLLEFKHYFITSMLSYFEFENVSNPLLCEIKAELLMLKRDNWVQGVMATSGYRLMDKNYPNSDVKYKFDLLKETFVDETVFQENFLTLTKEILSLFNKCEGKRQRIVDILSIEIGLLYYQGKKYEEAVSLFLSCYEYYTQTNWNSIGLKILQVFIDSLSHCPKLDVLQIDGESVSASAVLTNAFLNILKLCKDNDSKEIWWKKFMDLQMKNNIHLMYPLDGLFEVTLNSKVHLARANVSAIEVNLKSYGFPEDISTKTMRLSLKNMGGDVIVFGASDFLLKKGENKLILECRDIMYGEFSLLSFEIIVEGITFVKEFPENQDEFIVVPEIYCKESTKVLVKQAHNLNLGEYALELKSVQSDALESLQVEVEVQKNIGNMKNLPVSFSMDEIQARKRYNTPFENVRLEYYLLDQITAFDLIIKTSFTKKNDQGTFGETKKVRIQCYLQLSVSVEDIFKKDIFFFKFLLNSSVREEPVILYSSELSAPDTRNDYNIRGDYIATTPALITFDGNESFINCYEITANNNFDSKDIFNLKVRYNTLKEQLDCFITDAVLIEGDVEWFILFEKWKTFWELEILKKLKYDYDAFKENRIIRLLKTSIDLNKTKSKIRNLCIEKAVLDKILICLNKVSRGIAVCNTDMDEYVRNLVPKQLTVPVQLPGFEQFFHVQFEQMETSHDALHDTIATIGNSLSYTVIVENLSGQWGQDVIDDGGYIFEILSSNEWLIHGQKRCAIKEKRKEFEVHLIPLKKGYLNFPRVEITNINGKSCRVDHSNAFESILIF
Description: cryo-EM structure.

Assay [1] deals with T2, GST-Sec23 (S. cerevisiae) (UniProt P15303).
T2 sequence: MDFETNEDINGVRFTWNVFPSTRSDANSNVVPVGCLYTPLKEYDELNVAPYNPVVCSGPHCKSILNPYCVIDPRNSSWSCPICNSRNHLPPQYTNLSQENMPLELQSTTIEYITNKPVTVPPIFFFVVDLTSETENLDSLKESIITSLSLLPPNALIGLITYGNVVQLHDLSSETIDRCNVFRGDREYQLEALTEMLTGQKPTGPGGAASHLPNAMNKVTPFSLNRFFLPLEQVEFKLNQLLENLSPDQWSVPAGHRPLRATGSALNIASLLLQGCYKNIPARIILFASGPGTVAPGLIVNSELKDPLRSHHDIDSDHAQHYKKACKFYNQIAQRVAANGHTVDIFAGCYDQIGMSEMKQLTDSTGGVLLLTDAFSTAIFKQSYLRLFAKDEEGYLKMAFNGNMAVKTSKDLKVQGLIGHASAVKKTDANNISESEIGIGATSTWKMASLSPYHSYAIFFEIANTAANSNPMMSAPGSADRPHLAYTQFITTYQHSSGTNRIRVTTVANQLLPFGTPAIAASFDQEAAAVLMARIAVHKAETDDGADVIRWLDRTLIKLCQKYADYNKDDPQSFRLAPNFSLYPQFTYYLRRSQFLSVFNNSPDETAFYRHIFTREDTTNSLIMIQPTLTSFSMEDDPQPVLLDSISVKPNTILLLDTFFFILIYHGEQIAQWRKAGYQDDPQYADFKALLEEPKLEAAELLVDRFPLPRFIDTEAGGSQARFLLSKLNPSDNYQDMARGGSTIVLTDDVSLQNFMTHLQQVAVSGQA
Description: pull-down.

B1: Tca17 (protein, UniProt P32613 1-152)
chain: MSLRPCFVSLIDESDKPILIYVPNEAENEMNDVLKYNVLSNISLDYFESALVEWHSLDSKPLLKSIFQLEGVSVFAMLIKQTGLKIVIGFEQKSLSGADDEFEAINQIFETVRKIYIRVKCNPLLVSGDEKSIIKSLERKFDELFISTEVEL
Regarding B1, in the assay with Trs130 (S. cerevisiae), the binding result is given as “binds”.

B2: Full length Grh1 (protein, UniProt Q04410 1-372)
chain: MFRIAKNLVRTFEQSVQDTLALSQDSSNLDAFFQSIPPNLLSAQLESPVDAVSEGVKHTNVNETLSGLRIVWVDEMQFQLQSFFDYIVGFNDDPVPVVSNQHGFSYPDYRRITSIFNEHCGRTLKVNIWSAKGGTFRDEYISIISKESDDLDDVSLNHDERRPSSGEAHQFQALGFKVQWTPLIASTFTYHILNVNIPDGPAQSAGLIPDEDYIIGCQDGLLATGGETLLQDIVRSRANYDLVLYVYNKVSDCVRPITVHIGPDGRLGCNVGYGFLHRIPTVKHCPQQAQQQGQDDNPVPVPVPVESETAFVPSAFTAPPVPTKKKSKNKKGTQPLAMDDYFNEGRDKSSTAAKSAESDILAPPPQKQSSSD
On to B2, for which the binding entry in assay [1] is given as “binds”.

The record behind these values is paper doi:10.1101/2021.09.30.462231.
